Experimental data reported in the supplement of paper PMC8728848.
The list shows a part of the results.

What was measured:
Experiment in all cases: glycan array binding signal (z-score within array); higher = stronger binding
Details in all cases: glycan notation: IUPAC condensed, linker removed
[1] = biological target: Gal(b1-4)Glc
Method in brief: (§1)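 Negative Z-scores can be read as non-binding. The Z-score is calculated within each array and then averaged across arrays of one protein sequence at different concentrations or buffers and across linkers. Arrays, 3228 in all, were curated from the Consortium for Functional Glycomics database and kept only where the protein sequence was available.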

[2] = biological target: Gal(b1-4)Glc6S
Method in brief: as §1

[3] = biological target: Gal(b1-4)GlcNAc
Method in brief: as §1

[4] = biological target: Gal(b1-4)GlcNAc(a1-6)Gal(b1-4)GlcNAc
Method in brief: as §1

[5] = biological target: Gal(b1-4)GlcNAc(b1-2)Man
Method in brief: as §1

[6] = biological target: Gal(b1-4)GlcNAc(b1-2)Man(a1-3)Man(b1-4)GlcNAc(b1-4)GlcNAc
Method in brief: as §1

[7] = biological target: Gal(b1-4)GlcNAc(b1-2)Man(a1-3)[Gal(b1-4)GlcNAc(b1-2)Man(a1-6)]Man(b1-4)GlcNAc(b1-4)GlcNAc
Method in brief: as §1

[8] = biological target: Gal(b1-4)GlcNAc(b1-2)Man(a1-3)[Gal(b1-4)GlcNAc(b1-2)Man(a1-6)]Man(b1-4)GlcNAc(b1-4)[Fuc(a1-6)]GlcNAc
Method in brief: as §1

[9] = biological target: Gal(b1-4)GlcNAc(b1-2)Man(a1-3)[Gal(b1-4)GlcNAc(b1-2)Man(a1-6)][Gal(b1-4)GlcNAc(b1-4)]Man(b1-4)GlcNAc(b1-4)[Fuc(a1-6)]GlcNAc
Method in brief: as §1

[10] = biological target: Gal(b1-4)GlcNAc(b1-2)Man(a1-3)[Gal(b1-4)GlcNAc(b1-2)Man(a1-6)][GlcNAc(b1-4)]Man(b1-4)GlcNAc(b1-4)[Fuc(a1-6)]GlcNAc
Method in brief: as §1

[11] = biological target: Gal(b1-4)GlcNAc(b1-2)Man(a1-3)[GlcNAc(b1-2)Man(a1-6)]Man(b1-4)GlcNAc(b1-4)GlcNAc
Method in brief: as §1

[12] = biological target: Gal(b1-4)GlcNAc(b1-2)Man(a1-3)[GlcNAc(b1-4)][Gal(b1-4)GlcNAc(b1-2)Man(a1-6)]Man(b1-4)GlcNAc(b1-4)GlcNAc
Method in brief: as §1

[13] = biological target: Gal(b1-4)GlcNAc(b1-2)Man(a1-3)[Man(a1-6)]Man(b1-4)GlcNAc(b1-4)GlcNAc
Method in brief: as §1

[14] = biological target: Gal(b1-4)GlcNAc(b1-2)Man(a1-6)Man(b1-4)GlcNAc(b1-4)GlcNAc
Method in brief: as §1

[15] = biological target: Gal(b1-4)GlcNAc(b1-2)Man(a1-6)[GlcNAc(b1-2)Man(a1-3)]Man(b1-4)GlcNAc(b1-4)GlcNAc
Method in brief: as §1

[16] = biological target: Gal(b1-4)GlcNAc(b1-2)Man(a1-6)[Man(a1-3)]Man(b1-4)GlcNAc(b1-4)GlcNAc
Method in brief: as §1

[17] = biological target: Gal(b1-4)GlcNAc(b1-2)[Gal(b1-4)GlcNAc(b1-4)]Man(a1-3)[Gal(b1-4)GlcNAc(b1-2)Man(a1-6)]Man(b1-4)GlcNAc(b1-4)GlcNAc
Method in brief: as §1

[18] = biological target: Gal(b1-4)GlcNAc(b1-2)[Gal(b1-4)GlcNAc(b1-4)]Man(a1-3)[Gal(b1-4)GlcNAc(b1-2)[Gal(b1-4)GlcNAc(b1-6)]Man(a1-6)]Man(b1-4)GlcNAc(b1-4)GlcNAc
Method in brief: as §1

[19] = biological target: Gal(b1-4)GlcNAc(b1-2)[Gal(b1-4)GlcNAc(b1-4)]Man(a1-3)[GlcNAc(b1-4)][Gal(b1-4)GlcNAc(b1-2)Man(a1-6)]Man(b1-4)GlcNAc(b1-4)GlcNAc
Method in brief: as §1

[20] = biological target: Gal(b1-4)GlcNAc(b1-2)[Gal(b1-4)GlcNAc(b1-4)]Man(a1-3)[GlcNAc(b1-4)][Gal(b1-4)GlcNAc(b1-2)[Gal(b1-4)GlcNAc(b1-6)]Man(a1-6)]Man(b1-4)GlcNAc(b1-4)GlcNAc
Method in brief: as §1

[21] = biological target: Gal(b1-4)GlcNAc(b1-2)[Gal(b1-4)GlcNAc(b1-6)]Man(a1-6)[Gal(b1-4)GlcNAc(b1-2)Man(a1-3)]Man(b1-4)GlcNAc(b1-4)GlcNAc
Method in brief: as §1

[22] = biological target: Gal(b1-4)GlcNAc(b1-2)[Gal(b1-4)GlcNAc(b1-6)]Man(a1-6)[Gal(b1-4)GlcNAc(b1-2)Man(a1-3)]Man(b1-4)GlcNAc(b1-4)[Fuc(a1-6)]GlcNAc
Method in brief: as §1

[23] = biological target: Gal(b1-4)GlcNAc(b1-2)[Gal(b1-4)GlcNAc(b1-6)]Man(a1-6)[GlcNAc(b1-4)][Gal(b1-4)GlcNAc(b1-2)Man(a1-3)]Man(b1-4)GlcNAc(b1-4)GlcNAc
Method in brief: as §1

[24] = biological target: Gal(b1-4)GlcNAc(b1-2)[Gal(b1-4)GlcNAc(b1-6)]Man(a1-6)[GlcNAc(b1-4)][Gal(b1-4)GlcNAc(b1-2)[Gal(b1-4)GlcNAc(b1-4)]Man(a1-3)]Man(b1-4)GlcNAc(b1-4)[Fuc(a1-6)]GlcNAc
Method in brief: as §1

[25] = biological target: Gal(b1-4)GlcNAc(b1-3)Gal(b1-3)GalNAc
Method in brief: as §1

[26] = biological target: Gal(b1-4)GlcNAc(b1-3)Gal(b1-3)GlcNAc
Method in brief: as §1

[27] = biological target: Gal(b1-4)GlcNAc(b1-3)Gal(b1-4)Glc
Method in brief: as §1

[28] = biological target: Gal(b1-4)GlcNAc(b1-3)Gal(b1-4)GlcNAc
Method in brief: as §1

[29] = biological target: Gal(b1-4)GlcNAc(b1-3)Gal(b1-4)GlcNAc(b1-2)Man(a1-3)[Gal(b1-4)GlcNAc(b1-3)Gal(b1-4)GlcNAc(b1-2)Man(a1-6)]Man(b1-4)GlcNAc(b1-4)GlcNAc
Method in brief: as §1

[30] = biological target: Gal(b1-4)GlcNAc(b1-3)Gal(b1-4)GlcNAc(b1-2)Man(a1-3)[Gal(b1-4)GlcNAc(b1-3)Gal(b1-4)GlcNAc(b1-2)Man(a1-6)]Man(b1-4)GlcNAc(b1-4)[Fuc(a1-6)]GlcNAc
Method in brief: as §1

[31] = biological target: Gal(b1-4)GlcNAc(b1-3)Gal(b1-4)GlcNAc(b1-2)[Gal(b1-4)GlcNAc(b1-3)Gal(b1-4)GlcNAc(b1-6)]Man(a1-6)[Gal(b1-4)GlcNAc(b1-3)Gal(b1-4)GlcNAc(b1-2)Man(a1-3)]Man(b1-4)GlcNAc(b1-4)GlcNAc
Method in brief: as §1

[32] = biological target: Gal(b1-4)GlcNAc(b1-3)Gal(b1-4)GlcNAc(b1-2)[Gal(b1-4)GlcNAc(b1-3)Gal(b1-4)GlcNAc(b1-6)]Man(a1-6)[Gal(b1-4)GlcNAc(b1-3)Gal(b1-4)GlcNAc(b1-2)Man(a1-3)]Man(b1-4)GlcNAc(b1-4)[Fuc(a1-6)]GlcNAc
Method in brief: as §1

[33] = biological target: Gal(b1-4)GlcNAc(b1-3)Gal(b1-4)GlcNAc(b1-3)Gal(b1-4)GlcNAc
Method in brief: as §1

[34] = biological target: Gal(b1-4)GlcNAc(b1-3)Gal(b1-4)GlcNAc(b1-3)Gal(b1-4)GlcNAc(b1-2)Man(a1-3)[Gal(b1-4)GlcNAc(b1-3)Gal(b1-4)GlcNAc(b1-3)Gal(b1-4)GlcNAc(b1-2)Man(a1-6)]Man(b1-4)GlcNAc(b1-4)GlcNAc
Method in brief: as §1

[35] = biological target: Gal(b1-4)GlcNAc(b1-3)Gal(b1-4)GlcNAc(b1-3)Gal(b1-4)GlcNAc(b1-2)Man(a1-3)[Gal(b1-4)GlcNAc(b1-3)Gal(b1-4)GlcNAc(b1-3)Gal(b1-4)GlcNAc(b1-2)Man(a1-6)]Man(b1-4)GlcNAc(b1-4)[Fuc(a1-6)]GlcNAc
Method in brief: as §1

[36] = biological target: Gal(b1-4)GlcNAc(b1-3)Gal(b1-4)GlcNAc(b1-3)Gal(b1-4)GlcNAc(b1-2)[Gal(b1-4)GlcNAc(b1-3)Gal(b1-4)GlcNAc(b1-3)Gal(b1-4)GlcNAc(b1-6)]Man(a1-6)[Gal(b1-4)GlcNAc(b1-3)Gal(b1-4)GlcNAc(b1-3)Gal(b1-4)GlcNAc(b1-2)Man(a1-3)]Man(b1-4)GlcNAc(b1-4)[Fuc(a1-6)]GlcNAc
Method in brief: as §1

[37] = biological target: Gal(b1-4)GlcNAc(b1-3)Gal(b1-4)GlcNAc(b1-3)Gal(b1-4)GlcNAc(b1-3)Gal(b1-4)GlcNAc(b1-2)Man(a1-3)[Gal(b1-4)GlcNAc(b1-3)Gal(b1-4)GlcNAc(b1-3)Gal(b1-4)GlcNAc(b1-3)Gal(b1-4)GlcNAc(b1-2)Man(a1-6)]Man(b1-4)GlcNAc(b1-4)GlcNAc
Method in brief: as §1

B1: PX15642A-pgi-501-20-501 (Parabacteroides gingivalis) (protein)
chain: CELDRDPEGKDFQQPYTSFVQTKQNRDGLYALLRNTENPRMHFYQELQSDMYCTTITDGNSLAPFVNWDLGILNDHGRADEDEVSGIAGYYFVYNRLNQQANAFVNNTEAALQNQVYKNSTEIANAKSFLAEGKVLQALAIWRLMDRFSFHESVTEVNSGAKDLGVILLKEYNPGYIGPRATKAQCYDYILSRLSEAIEVLPENRESVLYVSRDYAYALRARIYLALGEYGKAAADAKMVVDKYPLIGAADASEFENIYRSDANNPEIIFRGFASATLGSFTATTLNGAAPAGKDIKYNPSAVPFQWVVDLYENEDFRKSVYIAKVVKKDKGYLVNKFLEDKAYRDVQDKPNLKVGARYFSVAEVYLILVESALQTGDTPTAEKYLKALSKARGAEVSVVNMEALQAERTRELIGEGSRLRDMVRWSIPNNHDAFETQPGLEGFANTTPLKAQAPVGFYAYTWEFPQRDRQTNPQLIKNWPI
- glycan array binding signal (z-score) [1]: -0.573
- glycan array binding signal (z-score) [2]: -0.008
- glycan array binding signal (z-score) [3]: -0.294
- glycan array binding signal (z-score) [4]: 1.28
- glycan array binding signal (z-score) [5]: -0.551
- glycan array binding signal (z-score) [6]: 0.396
- glycan array binding signal (z-score) [7]: 1.65
- glycan array binding signal (z-score) [8]: 0.993
- glycan array binding signal (z-score) [9]: 0.917
- glycan array binding signal (z-score) [10]: 0.025
- glycan array binding signal (z-score) [11]: 0.359
- glycan array binding signal (z-score) [12]: -0.543
- glycan array binding signal (z-score) [13]: 0.952
- glycan array binding signal (z-score) [14]: -0.174
- glycan array binding signal (z-score) [15]: -0.259
- glycan array binding signal (z-score) [16]: -0.027
- glycan array binding signal (z-score) [17]: 0.107
- glycan array binding signal (z-score) [18]: 0.733
- glycan array binding signal (z-score) [19]: -0.614
- glycan array binding signal (z-score) [20]: 0.486
- glycan array binding signal (z-score) [21]: 0.513
- glycan array binding signal (z-score) [22]: 0.317
- glycan array binding signal (z-score) [23]: -1.09
- glycan array binding signal (z-score) [24]: -0.025
- glycan array binding signal (z-score) [25]: -0.258
- glycan array binding signal (z-score) [26]: -0.787
- glycan array binding signal (z-score) [27]: 0.279
- glycan array binding signal (z-score) [28]: -0.893
- glycan array binding signal (z-score) [29]: 2.09
- glycan array binding signal (z-score) [30]: -0.043
- glycan array binding signal (z-score) [31]: 2.23
- glycan array binding signal (z-score) [32]: -0.473
- glycan array binding signal (z-score) [33]: -0.078
- glycan array binding signal (z-score) [34]: 0.586
- glycan array binding signal (z-score) [35]: 1.33
- glycan array binding signal (z-score) [36]: 0.209
- glycan array binding signal (z-score) [37]: 1.22
